According to article PMC7819943, “Rice protein-binding microarrays: a tool to detect cis-acting elements near promoter regions in rice”:
The list shows a part of the results.

Target: T1, OsSMF1 (Oryza sativa, UniProt Q6ZLB0 1-436)
T1 sequence: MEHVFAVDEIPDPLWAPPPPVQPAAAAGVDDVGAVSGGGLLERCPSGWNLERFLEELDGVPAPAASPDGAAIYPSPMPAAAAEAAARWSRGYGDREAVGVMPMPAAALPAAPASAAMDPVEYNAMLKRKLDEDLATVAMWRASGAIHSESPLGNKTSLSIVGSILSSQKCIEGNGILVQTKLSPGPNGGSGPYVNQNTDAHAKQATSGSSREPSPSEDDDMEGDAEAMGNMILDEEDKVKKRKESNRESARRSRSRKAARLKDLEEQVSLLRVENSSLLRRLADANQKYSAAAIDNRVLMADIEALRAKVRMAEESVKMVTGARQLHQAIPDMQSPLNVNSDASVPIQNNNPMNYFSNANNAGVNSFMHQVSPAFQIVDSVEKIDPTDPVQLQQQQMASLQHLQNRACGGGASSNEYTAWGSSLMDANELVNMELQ
Experiment: protein-binding microarray (RPBM); PBS, 2% BSA, 51.3 ng/ul salmon testes DNA, 50 uM zinc acetate, 200 nM TF, 25 C, 1 h; high values mean tight binding
Details: protein: recombinant; tags: N-terminal polyhistidine and DsRed monomer fusion (pET32a); chain copies: 2; label: CyDye5-dUTP incorporated in the synthesized complementary strand; 3' TTTTT single-stranded linker to array surface; dsDNA, one strand shown
Method in brief: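 An Axon 4000B scanner gave the binding signal as per-feature fluorescence intensity in arbitrary units. This followed washing of a custom Agilent array that had been incubated for 1 h at 25 °C with 200 nM protein in PBS, 2% BSA, salmon testes DNA and 50 µM zinc acetate. The proteins were transcription factors fused at the N-terminus to polyhistidine and DsRed, expressed in E. coli BL21-CodonPlus and purified on Ni–NTA.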

| Sequence | binding signal |
| --- | --- |
| CGCCACGGCGGACAAAACCGTCGCCACATCGGACAAATCGCGGAGTCACCTAGTGCAG | 8680 fluorescence intensity (a.u.) |
| GCAATGCGTGCGTGGCCGACGTACTCAATTCGTGGGTACACGGAGTCACCTAGTGCAG | 7670 fluorescence intensity (a.u.) |
| ACTCGAAAGTCCATCCCCGGTACGCATGACGCATCAAACCCGGAGTCACCTAGTGCAG | 7310 fluorescence intensity (a.u.) |
| GTCGAAGCGACGCGAGAGCGCGCACACGTGTTCTTCAGCCCGGAGTCACCTAGTGCAG | 7010 fluorescence intensity (a.u.) |
| CTGGGTGGGGCCCACACGTCATCCGCACTGCTTCTAGAACCGGAGTCACCTAGTGCAG | 10800 fluorescence intensity (a.u.) |
| TGGATGCAACAACAGAGCATGACATGACACTACAGGTCAGCGGAGTCACCTAGTGCAG | 6130 fluorescence intensity (a.u.) |
| TCTTCTTCTTCTCCACGTCCCCGGCCTCTCTTCTCGCTCTCGGAGTCACCTAGTGCAG | 8730 fluorescence intensity (a.u.) |
| GACTATCTTCGAGGGGTTGAAGATGACAGTAGACTGTGCACGGAGTCACCTAGTGCAG | 3190 fluorescence intensity (a.u.) |
| CAGATGACAAGTTCGCACGGGCTGACAGGGACAATCGGATCGGAGTCACCTAGTGCAG | 4510 fluorescence intensity (a.u.) |
| ACCTCCGCCTCGTCGCCCGCTTCGCCCATCGCCATCGCGCCGGAGTCACCTAGTGCAG | 3840 fluorescence intensity (a.u.) |
| GGGCTTGTGAACCGGGAGGCGAGGGGAGGGTTATGAGAGTCGGAGTCACCTAGTGCAG | 3680 fluorescence intensity (a.u.) |
| TGGGCCCATAATCGGCCCAGATAACAACCCTCCTCCGCATCGGAGTCACCTAGTGCAG | 4320 fluorescence intensity (a.u.) |
| TCTGGGAGGCCCGCACGGATAGATGCCACGACGATGCAGGCGGAGTCACCTAGTGCAG | 4080 fluorescence intensity (a.u.) |
| TTGCTGATTATTCCACGTCATACAACAACCCATTTTCCAACGGAGTCACCTAGTGCAG | 17900 fluorescence intensity (a.u.) |
| TACTGAACTGAACTAAGCTCAGTCAATCCCATGCATGTTGCGGAGTCACCTAGTGCAG | 3730 fluorescence intensity (a.u.) |
| CGCGCCACCGCGCGAGCTCTCGCCCTCACGTGGCGATCGACGGAGTCACCTAGTGCAG | 4710 fluorescence intensity (a.u.) |
| CTGAGAAGAACAACGAAGACACCATTCAGAGCAAAGCTTCCGGAGTCACCTAGTGCAG | 7460 fluorescence intensity (a.u.) |
| CATTGTACATACTACGCGGTAAGTATCCATGTGTGGGGTTCGGAGTCACCTAGTGCAG | 4180 fluorescence intensity (a.u.) |
| GTGTTTTGAATAATGTCTCTGCTGTCCAAAACTACTCCCTCGGAGTCACCTAGTGCAG | 3280 fluorescence intensity (a.u.) |
| TCCTGGGTCGCCCTCCTCCGTGACGCACCTTGACTGCCCCCGGAGTCACCTAGTGCAG | 5190 fluorescence intensity (a.u.) |
| ATGTTTGTGAAGTGACATATCACATATTGATCTATCATACCGGAGTCACCTAGTGCAG | 5200 fluorescence intensity (a.u.) |

Quoted at random: 2 records from the list.

| Sequence | binding signal |
| --- | --- |
| TACTGAACTGAACTAAGCTCAGTCAATCCCATGCATGTTGCGGAGTCACCTAGTGCAG | 3730 fluorescence intensity (a.u.) |
| CTGGGTGGGGCCCACACGTCATCCGCACTGCTTCTAGAACCGGAGTCACCTAGTGCAG | 10800 fluorescence intensity (a.u.) |

Next part

| Sequence | binding signal |
| --- | --- |
| ACCACCACATCACATTATCCCCGTGCCGTCCAATCCAACGCGGAGTCACCTAGTGCAG | 3850 fluorescence intensity (a.u.) |
| AGCGAATCTAGGGGCTGCCACGTGGCTCGCACGCGCACGTCGGAGTCACCTAGTGCAG | 28000 fluorescence intensity (a.u.) |
| AAAACCAATCTACCACCAACTGACAGATGATTGCCTTTCGCGGAGTCACCTAGTGCAG | 18100 fluorescence intensity (a.u.) |
| ATTTAGATGACATGCAAACAGATGAAAATCCACATTCCTCCGGAGTCACCTAGTGCAG | 3350 fluorescence intensity (a.u.) |
| TCATGCTCTCTGAGGAGAATGACACGACGAGAAAGAAGAGCGGAGTCACCTAGTGCAG | 4110 fluorescence intensity (a.u.) |
| GTGCCGCTGAGCTTTGCTGATTTGGCTTTTCCTTGTTGCGCGGAGTCACCTAGTGCAG | 5870 fluorescence intensity (a.u.) |
| GCAAGTGCCCCGGCGCGCCGCTCGGCGTCATCCTGGTGCTCGGAGTCACCTAGTGCAG | 3840 fluorescence intensity (a.u.) |
| ACCATGCAGGGAGGGACAACACGTGTCATTGGGAGACACGCGGAGTCACCTAGTGCAG | 3230 fluorescence intensity (a.u.) |
| TGCCACGTGACGTCCCTTCCTTCGGCGGCTTTGCCCGCTTCGGAGTCACCTAGTGCAG | 8220 fluorescence intensity (a.u.) |
| TGAATACGCGATTCTTCCTGTGAAAGCTGACGCGTTTGGTCGGAGTCACCTAGTGCAG | 3480 fluorescence intensity (a.u.) |
| GAGTCGCGCCTGGGCCGGCAGCTCTAACAACCCATCCCGGCGGAGTCACCTAGTGCAG | 17300 fluorescence intensity (a.u.) |
| GAGACCGTTCTGAATTTCTGAGACTGATACATATTTGATGCGGAGTCACCTAGTGCAG | 40300 fluorescence intensity (a.u.) |
| CGTCCCTTTCAGTCGTCGCCGCTGACACTACCTTGCTCCCCGGAGTCACCTAGTGCAG | 4830 fluorescence intensity (a.u.) |
| CGCAATTCCGCCGCCGCCGCAGCCACGTTGGCCGGCGGCCCGGAGTCACCTAGTGCAG | 5020 fluorescence intensity (a.u.) |
| TGTGAAGTGAAAACTATTATTTCTGACTCATAGATGTCATCGGAGTCACCTAGTGCAG | 3800 fluorescence intensity (a.u.) |
| GCTGAACAGGGGAGGGGCGGCGATCTCTATCTGGCGAGCACGGAGTCACCTAGTGCAG | 3880 fluorescence intensity (a.u.) |
| ACAAACCTATCAATGAACAGTACATGTCGATCCCAATGGGCGGAGTCACCTAGTGCAG | 4550 fluorescence intensity (a.u.) |
| TTGTGGTACGATACTAGTACTACTAGTAGACTAGTAGCAGCGGAGTCACCTAGTGCAG | 3260 fluorescence intensity (a.u.) |
| CCTGGTCTTTGATTGGTCCACGTGGCGCAGCGAGAATTCACGGAGTCACCTAGTGCAG | 10800 fluorescence intensity (a.u.) |
| GCCTGCCGCCCTCCCATCGCCGCTCCGCCCGCCGACTGTCCGGAGTCACCTAGTGCAG | 8860 fluorescence intensity (a.u.) |
| CAATACGTCATAATGTTTCATATTAATCTATGTTGTCAAGCGGAGTCACCTAGTGCAG | 4010 fluorescence intensity (a.u.) |
